Assay [1] deals with Bax (human (endogenous in LNCaP)) (UniProt Q07812). Put plainly: co-IP; unirradiated U7-control LNCaP cells; 100 ug total extract, 4 ug anti-Bax (clone 2D2) in PBS + 0.05% NP-40, overnight at 4°C, Protein G-Agarose; blot for Ku70.
The target is the same in assay [2]. Put plainly: co-IP; U7-control LNCaP cells 24 hrs after irradiation; 100 ug total extract, anti-Bax (clone 2D2) in PBS + 0.05% NP-40, overnight at 4°C, Protein G-Agarose; blot for Ku70.

Protein sequences, listed by entry. Tags and fused reporters are not part of them.
UniProt Q07812: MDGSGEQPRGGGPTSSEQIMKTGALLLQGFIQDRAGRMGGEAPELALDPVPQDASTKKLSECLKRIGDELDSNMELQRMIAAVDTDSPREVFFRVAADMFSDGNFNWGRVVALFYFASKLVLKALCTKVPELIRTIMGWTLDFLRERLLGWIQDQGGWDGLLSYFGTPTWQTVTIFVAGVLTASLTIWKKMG
UniProt P12956: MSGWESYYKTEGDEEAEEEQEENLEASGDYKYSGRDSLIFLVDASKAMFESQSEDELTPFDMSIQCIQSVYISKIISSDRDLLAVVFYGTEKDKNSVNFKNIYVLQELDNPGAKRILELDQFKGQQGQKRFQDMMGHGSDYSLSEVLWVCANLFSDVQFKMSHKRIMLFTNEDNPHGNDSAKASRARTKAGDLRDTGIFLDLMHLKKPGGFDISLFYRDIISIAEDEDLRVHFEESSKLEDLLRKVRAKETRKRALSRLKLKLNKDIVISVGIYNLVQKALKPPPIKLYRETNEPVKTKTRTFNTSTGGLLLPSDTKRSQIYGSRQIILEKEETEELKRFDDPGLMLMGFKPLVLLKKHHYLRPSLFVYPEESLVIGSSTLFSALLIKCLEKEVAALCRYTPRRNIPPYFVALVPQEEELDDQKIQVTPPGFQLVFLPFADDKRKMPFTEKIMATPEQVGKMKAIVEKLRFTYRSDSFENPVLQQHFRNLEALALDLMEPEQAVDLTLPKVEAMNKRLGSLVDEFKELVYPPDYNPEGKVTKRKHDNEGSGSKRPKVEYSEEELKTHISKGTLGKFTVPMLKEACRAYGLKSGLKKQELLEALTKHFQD

These are yes or no findings as the source states them, for the method shown. Binding seen in cells or lysates may run through a third protein. Some binding calls cover weakened binding; strength is not graded here.

As to Ku70 (from UniProt P12956 1-609), the binding entry in assay [1] was “binds”; in assay [2], “binds weakly”.

For the origin of these results see paper PMC3572101.
